Test results taken from publication PMC12456051.
No constants are given. Whether binding was seen depends on the method and setting. Binding seen in cells or lysates may run through a third protein. Some binding calls cover weakened binding; strength is not graded here.

Sequences of proteins named here, by UniProt entry; tags and fusion partners are left off.
UniProt P11142: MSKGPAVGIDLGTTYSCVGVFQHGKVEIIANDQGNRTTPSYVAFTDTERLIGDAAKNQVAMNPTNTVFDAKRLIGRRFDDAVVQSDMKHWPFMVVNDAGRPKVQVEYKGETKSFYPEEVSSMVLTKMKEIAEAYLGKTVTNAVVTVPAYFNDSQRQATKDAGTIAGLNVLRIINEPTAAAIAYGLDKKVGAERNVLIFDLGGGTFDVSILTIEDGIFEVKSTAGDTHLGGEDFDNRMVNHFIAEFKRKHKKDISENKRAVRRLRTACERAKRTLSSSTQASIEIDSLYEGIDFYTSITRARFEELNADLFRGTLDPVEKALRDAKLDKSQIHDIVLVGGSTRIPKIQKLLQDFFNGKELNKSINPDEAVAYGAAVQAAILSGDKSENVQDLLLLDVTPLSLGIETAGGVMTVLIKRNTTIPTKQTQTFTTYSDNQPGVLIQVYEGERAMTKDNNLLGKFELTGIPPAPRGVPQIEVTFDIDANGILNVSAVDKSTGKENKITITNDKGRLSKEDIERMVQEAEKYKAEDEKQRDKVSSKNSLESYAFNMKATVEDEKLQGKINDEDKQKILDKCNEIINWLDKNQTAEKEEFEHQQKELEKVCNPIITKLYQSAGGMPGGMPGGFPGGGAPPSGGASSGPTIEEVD
UniProt O14964: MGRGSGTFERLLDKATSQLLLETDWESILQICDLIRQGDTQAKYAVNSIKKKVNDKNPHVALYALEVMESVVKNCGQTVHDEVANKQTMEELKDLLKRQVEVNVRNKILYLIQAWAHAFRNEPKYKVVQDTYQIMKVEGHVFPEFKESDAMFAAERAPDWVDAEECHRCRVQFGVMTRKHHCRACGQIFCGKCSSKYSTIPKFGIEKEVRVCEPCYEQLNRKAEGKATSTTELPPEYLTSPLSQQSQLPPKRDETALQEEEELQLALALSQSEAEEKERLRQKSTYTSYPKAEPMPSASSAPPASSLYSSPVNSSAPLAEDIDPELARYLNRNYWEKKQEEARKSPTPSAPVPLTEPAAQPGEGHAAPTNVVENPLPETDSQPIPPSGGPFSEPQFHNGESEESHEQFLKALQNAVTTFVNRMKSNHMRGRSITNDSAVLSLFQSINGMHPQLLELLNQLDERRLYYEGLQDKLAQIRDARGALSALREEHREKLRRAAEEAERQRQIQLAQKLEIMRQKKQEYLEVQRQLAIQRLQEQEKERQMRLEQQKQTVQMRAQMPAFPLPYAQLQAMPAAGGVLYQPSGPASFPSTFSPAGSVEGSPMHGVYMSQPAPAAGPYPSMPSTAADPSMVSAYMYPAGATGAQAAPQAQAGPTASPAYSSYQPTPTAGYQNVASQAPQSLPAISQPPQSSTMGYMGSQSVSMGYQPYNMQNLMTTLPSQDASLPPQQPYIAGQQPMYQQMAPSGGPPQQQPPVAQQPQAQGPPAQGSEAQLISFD

Molecular target: heat shock cognate protein 70 (human (endogenous in HeLa)) (UniProt P11142)
Assay: co-IP; with and without HRS overexpression; pulled down by HSC70 (supplementary Figure S5E) or by Cas9 (supplementary Figure S5F); cells not told in the text shown

- binding: binds
Substance: hepatocyte growth factor-regulated tyrosine kinase substrate (from UniProt O14964 1-777)
